Experimental data: doi:10.1101/345959
These are yes or no findings as the source states them, for the method shown. In cells and extracts the contact can be indirect. Some entries that bind do so weakly or less than the wild type. Sequences can lack the tags named with a protein. Each block holds one binder with its values, some of them ahead of it.

Tests used:
[1] = target: T1, Mic60 (371-590AA), GST or His fused (Figure 2D) (UniProt Q16891); assay: pull-down
T1 sequence: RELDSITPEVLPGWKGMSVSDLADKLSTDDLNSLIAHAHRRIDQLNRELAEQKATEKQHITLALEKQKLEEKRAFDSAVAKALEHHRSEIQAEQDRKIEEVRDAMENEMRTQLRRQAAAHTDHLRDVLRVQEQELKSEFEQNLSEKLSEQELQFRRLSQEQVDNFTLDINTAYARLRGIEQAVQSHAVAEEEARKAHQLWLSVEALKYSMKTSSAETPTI

[2] = target: T2, Sam50, GST or His fused (Figure 2B-C) (UniProt Q9Y512); assay: pull-down
T2 sequence: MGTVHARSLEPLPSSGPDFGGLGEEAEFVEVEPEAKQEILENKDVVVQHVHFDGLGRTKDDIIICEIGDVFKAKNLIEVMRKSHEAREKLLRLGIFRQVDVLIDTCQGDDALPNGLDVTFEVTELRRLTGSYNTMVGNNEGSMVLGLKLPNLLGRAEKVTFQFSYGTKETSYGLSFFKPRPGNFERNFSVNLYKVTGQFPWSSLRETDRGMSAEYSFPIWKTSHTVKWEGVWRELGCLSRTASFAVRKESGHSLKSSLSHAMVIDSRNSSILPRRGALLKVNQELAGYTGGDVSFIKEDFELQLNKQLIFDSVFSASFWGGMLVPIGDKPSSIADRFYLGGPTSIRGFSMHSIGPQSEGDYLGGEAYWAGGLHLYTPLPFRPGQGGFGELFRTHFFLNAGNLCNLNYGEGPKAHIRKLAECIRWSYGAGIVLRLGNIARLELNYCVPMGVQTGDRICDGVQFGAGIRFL

GST-Mic25 (human) = target: T3, GST-Mic25 (human) (UniProt Q9BRQ6); assay: pull-down
T3 sequence: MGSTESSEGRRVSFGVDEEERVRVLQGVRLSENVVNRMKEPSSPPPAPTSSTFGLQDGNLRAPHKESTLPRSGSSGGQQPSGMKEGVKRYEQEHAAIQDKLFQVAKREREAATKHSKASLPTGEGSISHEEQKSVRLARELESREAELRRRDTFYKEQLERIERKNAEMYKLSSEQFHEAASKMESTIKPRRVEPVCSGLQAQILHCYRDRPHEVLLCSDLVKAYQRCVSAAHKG

[3] = target: T4, Mic19 (1-35aa)-Flag (human) (UniProt Q9NX63); assay: co-IP
T4 sequence: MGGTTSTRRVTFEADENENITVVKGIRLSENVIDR

Mic19-Flag (human) = target: T5, Mic19-Flag (human) (UniProt Q9NX63); assay: co-IP
T5 sequence: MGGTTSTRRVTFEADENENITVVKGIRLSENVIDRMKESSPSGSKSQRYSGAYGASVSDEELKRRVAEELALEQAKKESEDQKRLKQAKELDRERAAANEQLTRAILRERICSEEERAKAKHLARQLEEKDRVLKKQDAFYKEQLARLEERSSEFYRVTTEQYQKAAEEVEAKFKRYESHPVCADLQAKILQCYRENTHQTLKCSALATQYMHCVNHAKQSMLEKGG

Mic25-Flag (human) = target: T6, Mic25-Flag (human) (UniProt Q9BRQ6); assay: co-IP
T6 sequence: T3 sequence

B1: Mic19 (1-35AA), GST or His fused (domain or fragment, UniProt Q9NX63 1-35)
chain: T4 sequence
binding [1]: no binding | binding [2]: binds

B2: His-Mic60(371-590aa) (domain or fragment, UniProt Q16891 371-590)
chain: T1 sequence
binding (GST-Mic25 (human)): binds

The next lines start with the values.

binding [3]: binds | binding (Mic19-Flag (human)): binds | binding (Mic25-Flag (human)): binds
B3: Sam50 (endogenous) (protein, UniProt Q9Y512 1-469)
chain: T2 sequence

binding (GST-Mic25 (human)): binds
B4: Sam50 (Figure S3C) (protein, UniProt Q9Y512 1-469)
chain: T2 sequence
